Measured values taken from patent US6969738B2, “Malic acid diester surfactants” (Air Products and Chemicals, Inc., priority 1999, dated 2005).
Some entries share one result that the patent states for a list of compounds.

Assay: Dynamic surface tension of aqueous solutions, maximum bubble pressure method
Format: physicochemical
Conditions: 25° C.
Text: In the following Examples dynamic surface tension data were obtained for aqueous solutions of various compounds using the maximum bubble pressure method at bubble rates from 0.1 bubbles/second (b/s) to 20 b/s. […] In practical terms, high bubble rates correspond to high printing speeds in lithographic printing, high spray or roller velocities in coating applications, and rapid application rates for agricultural products.
Solutions of the materials of Examples 1-10 in distilled water were prepared. […] The pC20 value is defined as the negative logarithm of the molar concentration of surfactant required to decrease the surface tension of an aqueous solution to […], that is, 20 dyne/cm below that of pure water when the measurement is performed at 0.1 b/s. This value is a measure of the efficiency of a surfactant. […] In addition, the relative efficiency of surfactants can be obtained by comparing surface tension reduction of solutions containing the same amount of different surfactants. Such data is given for 0.1 wt % solutions of the dialkylmalates at 1.0 and 6.0 bubbles/second (b/s). The solubility limit was determined by intersection of the linear portion of a surface tension/In concentration curve with the limiting surface tension as is described in many textbooks. The limiting surface tensions at 0.1, 1, 6 and 20 b/s represent the lowest surface tensions in water which can be achieved at the given surface creation rates for a given surfactant regardless of the amount of surfactant used and is used to evaluate the effectiveness of a surfactant. These values give information about the relative ability of a surfactant to reduce surface defects under near-equilibrium conditions (0.1 b/s) through very dynamic conditions (20 b/s). Lower surface tensions would allow the elimination of defects upon application of a formulation onto lower energy surfaces.

CCC(C)COC(=O)CC(O)C(=O)OCC(C)CC (racemic) [Example 7, Di(2-methylbutyl)-DL-malate]
γ(0.1 wt % solution) (6 b/s) (listed as di(2-methylbutyl)-DL-malate): < 42 dyne/cm

CC(C)CCOC(=O)CC(O)C(=O)OCCC(C)C (racemic) [Example 6, Diisoamyl-DL-malate]
γ(0.1 wt % solution) (6 b/s) (listed as diisoamyl-DL-malate): < 42 dyne/cm

CCCCCOC(=O)CC(O)C(=O)OCCCCC (racemic) [Example 5, Dipentyl-DL-malate]
γ(0.1 wt % solution) (6 b/s) (listed as dipentyl-DL-malate): < 42 dyne/cm
